The values that follow come from patent US20170290821A1 (priority 2014, published 2017).

Structures are written as SMILES. Where two headings read alike, the source gives them in different places.

For the assay, the system named is influenza virus A/WSN RG#1-1 strains. Description: microbe, parasite or virus in culture. The class given is cell-based. Conditions: unidentified influenza virus, read-out: IC50 (50% virus replication inhibitory concentration).

Consider `CCS(=O)(=O)N1CC(CC#N)(n2cc(-c3ncnc4[nH]ccc34)cn2)C1` [Compound J6, 2-[1-ethylsulfonyl-3-[4-(7H-pyrrolo[2,3-d]pyrimidin-4-yl)-pyrazol-1-yl]azetidin-3-yl]acetonitrile], for which the IC50 by setting is: (A549, 48 h) 31.6 µM; (HEK293, 48 h) 31.6 µM.
